The values below come from PMC9523997.

By UniProt entry, the sequences of proteins in these tests, tags left out.
UniProt Q9V727: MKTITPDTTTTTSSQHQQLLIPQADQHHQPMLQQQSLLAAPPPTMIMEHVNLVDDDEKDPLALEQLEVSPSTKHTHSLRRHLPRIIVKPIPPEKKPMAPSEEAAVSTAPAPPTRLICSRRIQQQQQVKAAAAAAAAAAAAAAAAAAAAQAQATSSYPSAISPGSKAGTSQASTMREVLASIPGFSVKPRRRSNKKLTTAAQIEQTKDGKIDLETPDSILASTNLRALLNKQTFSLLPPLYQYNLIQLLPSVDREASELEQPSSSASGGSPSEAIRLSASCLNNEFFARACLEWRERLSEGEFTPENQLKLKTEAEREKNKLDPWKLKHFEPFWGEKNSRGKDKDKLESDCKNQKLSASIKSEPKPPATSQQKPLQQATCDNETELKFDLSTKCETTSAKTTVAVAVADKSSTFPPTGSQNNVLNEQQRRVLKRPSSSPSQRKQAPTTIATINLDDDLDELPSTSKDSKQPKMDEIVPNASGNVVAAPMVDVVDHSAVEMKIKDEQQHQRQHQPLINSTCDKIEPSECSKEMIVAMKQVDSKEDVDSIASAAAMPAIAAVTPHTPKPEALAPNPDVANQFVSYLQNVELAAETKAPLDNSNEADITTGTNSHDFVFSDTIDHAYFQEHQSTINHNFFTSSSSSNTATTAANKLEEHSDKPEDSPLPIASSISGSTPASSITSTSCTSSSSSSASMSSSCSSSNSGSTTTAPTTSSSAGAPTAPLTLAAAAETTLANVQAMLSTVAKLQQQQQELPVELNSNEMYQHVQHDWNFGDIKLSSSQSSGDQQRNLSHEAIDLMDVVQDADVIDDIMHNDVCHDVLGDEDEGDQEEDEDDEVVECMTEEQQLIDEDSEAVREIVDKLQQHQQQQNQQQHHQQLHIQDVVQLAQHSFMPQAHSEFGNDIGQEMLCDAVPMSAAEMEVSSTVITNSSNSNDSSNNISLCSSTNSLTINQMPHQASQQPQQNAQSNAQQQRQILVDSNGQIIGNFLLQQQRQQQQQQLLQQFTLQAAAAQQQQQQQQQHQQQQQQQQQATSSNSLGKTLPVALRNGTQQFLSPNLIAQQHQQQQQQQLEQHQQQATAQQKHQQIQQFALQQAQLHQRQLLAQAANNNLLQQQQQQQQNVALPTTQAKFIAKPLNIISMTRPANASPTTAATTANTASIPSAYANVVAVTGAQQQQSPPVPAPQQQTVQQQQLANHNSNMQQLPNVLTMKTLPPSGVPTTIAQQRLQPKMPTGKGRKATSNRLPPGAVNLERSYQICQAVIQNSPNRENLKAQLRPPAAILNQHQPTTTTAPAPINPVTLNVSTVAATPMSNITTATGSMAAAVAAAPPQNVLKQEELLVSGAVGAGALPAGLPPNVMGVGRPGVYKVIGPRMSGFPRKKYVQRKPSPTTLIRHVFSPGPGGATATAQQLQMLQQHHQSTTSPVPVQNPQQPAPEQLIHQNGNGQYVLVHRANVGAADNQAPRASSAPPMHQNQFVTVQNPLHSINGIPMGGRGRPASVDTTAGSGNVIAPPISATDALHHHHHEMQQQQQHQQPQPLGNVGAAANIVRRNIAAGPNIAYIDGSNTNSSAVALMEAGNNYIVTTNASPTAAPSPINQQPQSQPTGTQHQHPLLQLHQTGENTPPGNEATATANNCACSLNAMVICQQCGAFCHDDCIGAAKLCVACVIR

For this assay, the target named is T1, GFP-tagged MBD domain of Drosophila Six-banded (SBA) (Drosophila) (UniProt A8JR92).
T1 sequence: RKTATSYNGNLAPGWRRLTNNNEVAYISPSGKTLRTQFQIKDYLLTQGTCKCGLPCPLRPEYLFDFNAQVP
Description: affinity purification with mass spectrometry; GFP-fusion protein purified from Drosophila S2 cells transduced with the GFP-tagged MBD domain of SBA.

Results are given in words; binding and its absence hold for the method and conditions named. In cells and extracts the contact can be indirect. These calls come from enrichment with a bait or labelling near it, and not all partners need be listed. Where a sequence is shown, tags or fusion partners need not be part of it.

Consider “additional sex combs (ASX), endogenous in Drosophila S2 cells (from UniProt Q9V727 1-1669)”, for which the binding entry is recorded as “binds”.

B1: Calypso, endogenous in Drosophila S2 cells (enzyme, UniProt Q7K5N4 1-471)
chain: MNAAGGGSGAQAAAVAAGNNSLSHNALLSTASGATTMPMAQLADGWLELESDPGLFTLLLKDFGCHDVQVEEVYDLQKPIESPYGFIFLFRWIEERRARRKIVETTAEIFVKDEEAISSIFFAQQVVPNSCATHALLSVLLNCNENNLQLGDTLSRLKTHTKGMSPENKGLAIGNTPELACAHNSHAMPQARRRLERTGAGVSSCRFTGEAFHFVSFVPINGQLFELDGLKPYPMNHGGWEDSEDWTDKFRRVMAERLGIATGEQDIRFNLMAVVPDRRIAITHKLKMLRTNQAIVSGTLQKLLKADEQGESGNGDSQRPDTPTTLLEPSAFTARDLQSLLKNLDTEIAINEQHLADENDRRHMFKVDASRRTHNYDKFICTFLSMLAHQGVLGELVSQHLLPSKKVSGQGAANRISKQSTTASAGGSTAAGTASTPKTQQQQAAAAKNGKSPSKTPGRRRKGRNKCRKRK
For the molecule B1, the binding result is listed as “binds”.
